# Assay results published in the supplement of paper PMC8728848.
# Some of the results follow.
# How the values were obtained:
# Test in all cases: glycan array binding signal (z-score within array); higher = stronger binding
# Details in all cases: glycan notation: IUPAC condensed, linker removed
# Neu5Ac(a2-8)Neu5Ac = biological target: Neu5Ac(a2-8)Neu5Ac
# How it was run: (§1)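 Columns mapping to the same glycan were averaged after glycan names were converted to IUPAC-condensed notation. The data come from 3228 arrays in the Consortium for Functional Glycomics database, limited to those with an available protein sequence. Binding is reported as a within-array Z-score averaged across arrays of one protein sequence and across linkers.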
# [1] = biological target: Neu5Ac(a2-8)Neu5Ac(a2-3)Gal(b1-3)GalNAc(b1-4)[Neu5Ac(a2-3)]Gal(b1-4)Glc
# How it was run: as §1
# [2] = biological target: Neu5Ac(a2-8)Neu5Ac(a2-3)Gal(b1-3)GalNAc(b1-4)[Neu5Ac(a2-8)Neu5Ac(a2-3)]Gal(b1-4)Glc
# How it was run: as §1
# [3] = biological target: Neu5Ac(a2-8)Neu5Ac(a2-3)Gal(b1-4)Glc
# How it was run: as §1
# [4] = biological target: Neu5Ac(a2-8)Neu5Ac(a2-3)Gal(b1-4)GlcNAc
# How it was run: as §1
# [5] = biological target: Neu5Ac(a2-8)Neu5Ac(a2-3)[Gal(b1-3)GalNAc(b1-4)]Gal(b1-4)Glc
# How it was run: as §1
# [6] = biological target: Neu5Ac(a2-8)Neu5Ac(a2-3)[GalNAc(b1-4)]Gal(b1-4)Glc
# How it was run: as §1
# [7] = biological target: Neu5Ac(a2-8)Neu5Ac(a2-8)Neu5Ac
# How it was run: as §1
# [8] = biological target: Neu5Ac(a2-8)Neu5Ac(a2-8)Neu5Ac(a2-3)Gal(b1-4)Glc
# How it was run: as §1
# [9] = biological target: Neu5Ac(a2-8)Neu5Ac(a2-8)Neu5Ac(a2-3)[Gal(b1-3)GalNAc(b1-4)]Gal(b1-4)Glc
# How it was run: as §1
# [10] = biological target: Neu5Ac(a2-8)Neu5Ac(a2-8)Neu5Ac(a2-3)[GalNAc(b1-4)]Gal(b1-4)Glc
# How it was run: as §1
# [11] = biological target: Neu5Ac(a2-8)Neu5Ac(a2-8)Neu5Ac(a2-8)Neu5Ac(a2-3)[GalNAc(b1-4)]Gal(b1-4)Glc
# How it was run: as §1
# [12] = biological target: Neu5Ac(a2-8)Neu5Gc(a2-3)Gal(b1-4)GlcNAc
# How it was run: as §1
# [13] = biological target: Neu5Ac(b2-6)Gal(b1-4)GlcNAc
# How it was run: as §1
# Neu5Ac(b2-6)GalNAc = biological target: Neu5Ac(b2-6)GalNAc
# How it was run: as §1
# [14] = biological target: Neu5Ac9Ac(a2-3)Gal(b1-3)GlcNAc
# How it was run: as §1
# [15] = biological target: Neu5Ac9Ac(a2-3)Gal(b1-4)GlcNAc
# How it was run: as §1
# [16] = biological target: Neu5Ac9Ac(a2-6)Gal(b1-4)GlcNAc
# How it was run: as §1
# [17] = biological target: Neu5Gc(a2-3)Gal(b1-3)GlcNAc
# How it was run: as §1
# [18] = biological target: Neu5Gc(a2-3)Gal(b1-3)[Fuc(a1-4)]GlcNAc
# How it was run: as §1
# Neu5Gc(a2-3)Gal(b1-4)Glc = biological target: Neu5Gc(a2-3)Gal(b1-4)Glc
# How it was run: as §1
# [19] = biological target: Neu5Gc(a2-3)Gal(b1-4)GlcNAc
# How it was run: as §1
# [20] = biological target: Neu5Gc(a2-3)Gal(b1-4)GlcNAc(b1-3)Gal(b1-4)GlcNAc(b1-2)Man(a1-3)[Neu5Gc(a2-3)Gal(b1-4)GlcNAc(b1-3)Gal(b1-4)GlcNAc(b1-2)Man(a1-6)]Man(b1-4)GlcNAc(b1-4)GlcNAc
# How it was run: as §1
# [21] = biological target: Neu5Gc(a2-3)Gal(b1-4)[Fuc(a1-3)]GlcNAc
# How it was run: as §1
# [22] = biological target: Neu5Gc(a2-6)Gal(b1-4)GlcNAc
# How it was run: as §1
# Neu5Gc(a2-6)GalNAc = biological target: Neu5Gc(a2-6)GalNAc
# How it was run: as §1
# [23] = biological target: Neu5Gc(a2-8)Neu5Ac(a2-3)Gal(b1-4)GlcNAc
# How it was run: as §1
# [24] = biological target: Neu5Gc(a2-8)Neu5Gc(a2-3)Gal(b1-4)GlcNAc
# How it was run: as §1
# [25] = biological target: Neu5Gc(a2-8)Neu5Gc(a2-3)Gal(b1-4)GlcNAc(b1-3)Gal(b1-4)GlcNAc
# How it was run: as §1
# [26] = biological target: Neu5Gc(a2-8)Neu5Gc(a2-6)Gal(b1-4)GlcNAc
# How it was run: as §1
# [27] = biological target: Neu5Gc(b2-6)Gal(b1-4)GlcNAc
# How it was run: as §1
binder,measurement,setting,value
"SAOUHSC 02783 (Staphylococcus aureus), Q5HD69 (protein) MIHSKKLTLGICLVLLIILIVGYVIMTKTNGRNAQIKDTFNQTLKLYPTKNLDDFYDKEGFRDQEFKKGDKGTWIVNSEMVIEPKGKDMETRGMVLYINRNTRTTKGYYFISEMTDDSNGRPKDDEKRYPVKMEHNKIIPTKPLPNDKLKKEIENFKFFVQYGNFKDINDYKDGDISYNPNVPSYSAKYQLNNDDYNVQQLRKRYDIPTKQAPKLLLKGDGDLKGSSVGSRSLEFTFVENKEENIYFTDSVQYTPSEDTRYESN",glycan array binding signal (z-score),Neu5Ac(a2-8)Neu5Ac,-0.229
same,glycan array binding signal (z-score),[1],-1.24
same,glycan array binding signal (z-score),[2],-0.625
same,glycan array binding signal (z-score),[3],-0.728
same,glycan array binding signal (z-score),[4],0.416
same,glycan array binding signal (z-score),[5],0.98
same,glycan array binding signal (z-score),[6],-0.759
same,glycan array binding signal (z-score),[7],1.49
same,glycan array binding signal (z-score),[8],0.363
same,glycan array binding signal (z-score),[9],-1.75
same,glycan array binding signal (z-score),[10],-0.985
same,glycan array binding signal (z-score),[11],-0.411
same,glycan array binding signal (z-score),[12],-1.02
same,glycan array binding signal (z-score),[13],-1.62
same,glycan array binding signal (z-score),Neu5Ac(b2-6)GalNAc,0.273
same,glycan array binding signal (z-score),[14],1.1
same,glycan array binding signal (z-score),[15],-0.671
same,glycan array binding signal (z-score),[16],1.65
same,glycan array binding signal (z-score),[17],1.47
same,glycan array binding signal (z-score),[18],-0.236
same,glycan array binding signal (z-score),Neu5Gc(a2-3)Gal(b1-4)Glc,-1.37
same,glycan array binding signal (z-score),[19],3.09
same,glycan array binding signal (z-score),[20],1.23
same,glycan array binding signal (z-score),[21],0.846
same,glycan array binding signal (z-score),[22],-1.49
same,glycan array binding signal (z-score),Neu5Gc(a2-6)GalNAc,-0.388
same,glycan array binding signal (z-score),[23],-0.724
same,glycan array binding signal (z-score),[24],-1.18
same,glycan array binding signal (z-score),[25],0.421
same,glycan array binding signal (z-score),[26],-0.44
same,glycan array binding signal (z-score),[27],-0.76

# Some of the entries so far, with tabs:
binder	measurement	setting	value
SAOUHSC 02783 (Staphylococcus aureus), Q5HD69 (protein) MIHSKKLTLGICLVLLIILIVGYVIMTKTNGRNAQIKDTFNQTLKLYPTKNLDDFYDKEGFRDQEFKKGDKGTWIVNSEMVIEPKGKDMETRGMVLYINRNTRTTKGYYFISEMTDDSNGRPKDDEKRYPVKMEHNKIIPTKPLPNDKLKKEIENFKFFVQYGNFKDINDYKDGDISYNPNVPSYSAKYQLNNDDYNVQQLRKRYDIPTKQAPKLLLKGDGDLKGSSVGSRSLEFTFVENKEENIYFTDSVQYTPSEDTRYESN	glycan array binding signal (z-score)	[4]	0.416
same	glycan array binding signal (z-score)	[5]	0.98
